Measurements reported in US11414374B2, “Crystalline forms of vilanterol trifenatate and processes for their preparation” (Hovione Scientia Limited, priority 2017, dated 2022).
Some of these results come from one statement about several compounds together.

Assay: Visual solubility in differing solvents (European Pharmacopeia 6.0 section 5.11)
Type: physicochemical
Details: for visual solubility in tetrahydrofuran (THF): THF at 25° C.; for visual solubility in methanol: methanol at 25° C.
Description: Visual solubility of certain forms (compounds) in differing solvents was assessed according to the procedure described in the European Pharmacopeia 6.0 section 5.11. p. The compound was shaken vigorously for 1 min and placed in a constant temperature device for 15 min at 25.0±0.5° C. If the compound was not completely dissolved, the shaking was repeated for 1 min and the tube placed in a constant temperature device for 15 min. 50 mg of compound was weighed in a stoppered tube, 0.05 mL of the solvent added and the Dissolving Procedure (see above) followed. If the compound was completely dissolved, it is very soluble. If the compound was not completely dissolved, a further 0.45 mL of the solvent was added and the Dissolving Procedure (see above) followed. […] If the compound was still not completely dissolved, still further 1.0 mL of the solvent was added and the Dissolving Procedure (see above) followed. If the compound was completely dissolved, it is soluble. If the compound was still not completely dissolved, another 3.5 mL of the solvent was added and the Dissolving Procedure (see above) followed. […] If the compound was still not completely dissolved, the compound is slightly soluble or very slightly soluble. In this case, and the suspension was heated up to the boiling point (max 80° C.) under stirring to verify the solubility at high temperature. The hot solution was afterwards cooled to room temperature to observe whether the compound precipitates. If the compound at room temperature was completely dissolved, it is soluble at high temperature. [table]

SMILES	visual solubility in tetrahydrofuran (THF)	visual solubility in methanol	visual solubility in ethanol (ethanol at 25° C.)
OCc1cc([C@@H](O)CNCCCCCCOCCOCc2c(Cl)cccc2Cl)ccc1O [form II, vilanterol trifenatate]	freely soluble (a further 0.45 mL of the solvent was added and the Dissolving Procedure (see above) followed. If the compound was completely dissolved, it is freely soluble.)	soluble (still further 1.0 mL of the solvent was added and the Dissolving Procedure (see above) followed. If the compound was completely dissolved, it is soluble.)	
OCc1cc([C@@H](O)CNCCCCCCOCCOCc2c(Cl)cccc2Cl)ccc1O [form I, 4-((1R)-2-((6-(2-((2,6-Dichlorophenyl)methoxy)ethoxy)hexyl)amino)-1-hydroxyethyl)-2-(hydroxymethyl)phenol triphenylacetate, reference compound]	freely soluble (a further 0.45 mL of the solvent was added and the Dissolving Procedure (see above) followed. If the compound was completely dissolved, it is freely soluble.)		
OCc1cc([C@@H](O)CNCCCCCCOCCOCc2c(Cl)cccc2Cl)ccc1O [form III, vilanterol trifenatate]		soluble (still further 1.0 mL of the solvent was added and the Dissolving Procedure (see above) followed. If the compound was completely dissolved, it is soluble.)	sparingly soluble (another 3.5 mL of the solvent was added and the Dissolving Procedure (see above) followed. If the compound was completely dissolved, it is sparingly soluble.)
